Publication PMC7049685, “The C-terminal tail of the yeast mitochondrial transcription factor Mtf1 coordinates template strand alignment, DNA scrunching and timely transition into elongation” (Nucleic Acids Research, 2020)
No constants are given. Whether binding was seen depends on the method and setting. A result given as binding can be weak or reduced; the word gives no strength.

B1: Mitochondrial Transcription Factor 1 (Mtf1), wild type (protein, UniProt P14908 2-341)
chain: SVPIPGIKDISKLKFFYGFKYLWNPTVYNKIFDKLDLTKTYKHPEELKVLDLYPGVGIQSAIFYNKYCPRQYSLLEKRSSLYKFLNAKFEGSPLQILKRDPYDWSTYSNLIDEERIFVPEVQSSDHINDKFLTVANVTGEGSEGLIMQWLSCIGNKNWLYRFGKVKMLLWMPSTTARKLLARPGMHSRSKCSVVREAFTDTKLIAISDANELKGFDSQCIEEWDPILFSAAEIWPTKGKPIALVEMDPIDFDFDVDNWDYVTRHLMILKRTPLNTVMDSLGHGGQQYFNSRITDKDLLKKCPIDLTNDEFIYLTKLFMEWPFKPDILMDFVDMYQTEHSG
B2: Mtf1 C-tail deletion mutant lacking 4 aa from the C-terminus (domain or fragment, UniProt P14908 1-337)
chain: MSVPIPGIKDISKLKFFYGFKYLWNPTVYNKIFDKLDLTKTYKHPEELKVLDLYPGVGIQSAIFYNKYCPRQYSLLEKRSSLYKFLNAKFEGSPLQILKRDPYDWSTYSNLIDEERIFVPEVQSSDHINDKFLTVANVTGEGSEGLIMQWLSCIGNKNWLYRFGKVKMLLWMPSTTARKLLARPGMHSRSKCSVVREAFTDTKLIAISDANELKGFDSQCIEEWDPILFSAAEIWPTKGKPIALVEMDPIDFDFDVDNWDYVTRHLMILKRTPLNTVMDSLGHGGQQYFNSRITDKDLLKKCPIDLTNDEFIYLTKLFMEWPFKPDILMDFVDMYQT
B3: Mtf1 C-tail deletion mutant lacking 12 aa from the C-terminus (domain or fragment, UniProt P14908 1-329)
chain: MSVPIPGIKDISKLKFFYGFKYLWNPTVYNKIFDKLDLTKTYKHPEELKVLDLYPGVGIQSAIFYNKYCPRQYSLLEKRSSLYKFLNAKFEGSPLQILKRDPYDWSTYSNLIDEERIFVPEVQSSDHINDKFLTVANVTGEGSEGLIMQWLSCIGNKNWLYRFGKVKMLLWMPSTTARKLLARPGMHSRSKCSVVREAFTDTKLIAISDANELKGFDSQCIEEWDPILFSAAEIWPTKGKPIALVEMDPIDFDFDVDNWDYVTRHLMILKRTPLNTVMDSLGHGGQQYFNSRITDKDLLKKCPIDLTNDEFIYLTKLFMEWPFKPDILM
B4: Mtf1 C-tail deletion mutant lacking 16 aa from the C-terminus (domain or fragment, UniProt P14908 1-325)
chain: MSVPIPGIKDISKLKFFYGFKYLWNPTVYNKIFDKLDLTKTYKHPEELKVLDLYPGVGIQSAIFYNKYCPRQYSLLEKRSSLYKFLNAKFEGSPLQILKRDPYDWSTYSNLIDEERIFVPEVQSSDHINDKFLTVANVTGEGSEGLIMQWLSCIGNKNWLYRFGKVKMLLWMPSTTARKLLARPGMHSRSKCSVVREAFTDTKLIAISDANELKGFDSQCIEEWDPILFSAAEIWPTKGKPIALVEMDPIDFDFDVDNWDYVTRHLMILKRTPLNTVMDSLGHGGQQYFNSRITDKDLLKKCPIDLTNDEFIYLTKLFMEWPFKP
B5: Mtf1 C-tail deletion mutant lacking 20 aa from the C-terminus (domain or fragment, UniProt P14908 1-321)
chain: MSVPIPGIKDISKLKFFYGFKYLWNPTVYNKIFDKLDLTKTYKHPEELKVLDLYPGVGIQSAIFYNKYCPRQYSLLEKRSSLYKFLNAKFEGSPLQILKRDPYDWSTYSNLIDEERIFVPEVQSSDHINDKFLTVANVTGEGSEGLIMQWLSCIGNKNWLYRFGKVKMLLWMPSTTARKLLARPGMHSRSKCSVVREAFTDTKLIAISDANELKGFDSQCIEEWDPILFSAAEIWPTKGKPIALVEMDPIDFDFDVDNWDYVTRHLMILKRTPLNTVMDSLGHGGQQYFNSRITDKDLLKKCPIDLTNDEFIYLTKLFMEW

Target: yeast mitochondrial RNA polymerase Rpo41 (S. cerevisiae)
Assay: fluorescence polarisation; fluorescence anisotropy: TAMRA-labelled promoter DNA (5 nM) titrated with Rpo41 and Mtf1 at 1:1.2; 25°C; 50 mM Tris-acetate pH 7.5, 100 mM potassium glutamate, 10 mM magnesium acetate, 0.01% Tween-20; reads the ternary Rpo41-Mtf1-promoter DNA complex; both purified

binding, binds:
B1, B2, B3, B4, B5
